Measurements reported in article PMC3765993, “The duration of sleep promoting efficacy by dual orexin receptor antagonists is dependent upon receptor occupancy threshold” (BMC Neuroscience, 2013).
“Also recorded” adds a separate entry of the source.

Test system: rhesus monkeys
Test: Rhesus monkey quantitative EEG spectral power
Type: in vivo
Conditions: 10 mg/kg p.o. 2 h before lights out, versus vehicle; for qEEG theta power during the inactive period: 10 mg/kg

SMILES	qEEG gamma power (35–100 Hz) during the inactive period	qEEG theta power during the inactive period
CN1C(=O)CN=C(c2ccccc2)c2cc(Cl)ccc21 [Diazepam]	increased	substantially decreased; also recorded: suppressed
CN1CCN(C(=O)O[C@H]2c3nccnc3C(=O)N2c2ccc(Cl)cn2)CC1 [Eszopiclone]	increased	substantially decreased; also recorded: suppressed
